Experimental data taken from patent US20230296626A1.
No constants are given. Whether binding was seen depends on the method and setting. In cells and extracts the contact can be indirect. Some binding calls cover weakened binding; strength is not graded here.

Molecular target: T1, ASC (Apoptosis-associated Speck-like protein containing a Caspase Activating Recruitment Domain), mouse, endogenous in brain cortical lysate (mouse) (UniProt Q9EPB4)
T1 sequence (looked up): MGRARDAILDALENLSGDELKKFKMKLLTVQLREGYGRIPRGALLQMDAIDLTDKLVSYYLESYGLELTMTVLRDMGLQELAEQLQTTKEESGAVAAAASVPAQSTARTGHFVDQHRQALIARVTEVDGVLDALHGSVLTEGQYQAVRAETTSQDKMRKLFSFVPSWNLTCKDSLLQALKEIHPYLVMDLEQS
Assay: co-immunoprecipitation from mouse cortical lysate with IC-100 on Protein G MicroBeads, immunoblot

binding: binds
B1: IC-100 (humanized anti-ASC monoclonal antibody) (antibody, V domains shown)
VH: QVTLKESGPALVKPTQTLTLTCSFSGFSLSTSGMGVSWIRQPAGKGLEWLAHIYWDDDKRYNPSLKSRLTISKDSSKNQVVLTMTNMDPVDTATYSCARSTPIVANAMDYWGQGTLVTVSS
VL: DIVMTQSPDSLAVSLGERATINCKASQSVDYDGDSYMNWYQQKPGQPPKLLIYAASNLESGIPARFSGSGSGTDFTLTISSLQPEDVATYYCQQSNEDPYTFGQGTKLEIK
